Taken from: PubChem BioAssay AID1508597 (Cure First, 2020)
Shown is an unselected part of the about 2,100 reagents, under one of the conditions tested. 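Calls flag viability under 80% in either arm, not effects specific to rucaparib; the reference for percent is not stated.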 Some reagents were tested in more than one well and are listed for each. Not stated in the record: the 100% reference.

Screen: 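Knock-downs altering ovarian cancer cell survival with or without PARP inhibitor rucaparib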 (primary screen)
Cell system: human ovarian carcinoma lines grown from tumours: OCI-P5x (papillary serous) and OCI-C5x (clear cell)
Reagent: siRNA pool against human genes, 1.25 pmol siRNA per well
Duration: 72 h or 96 h, depending on the cell culture
Treatment: rucaparib 20 µM (about IC30) or vehicle, present until read-out
Rucaparib or vehicle: Rucaparib
Cell line: OCI-P5x (serous)
Read-out: 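Luminescent ATP-based viability assay read 72 or 96 h after transfection, depending on culture, given as normalised percent viability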
Scale: viability, normalised: higher = more viable cells remaining
Hit rule: 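Active when normalised viability falls below 80 percent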
Calls: active = viability under 80%; inactive = viability 80% or more

AKT3 (AKT serine/threonine kinase 3) [SID405527451], technical replicate 1
- viability, normalised (%): 92.8
- Outcome: inactive

AKT3 (AKT serine/threonine kinase 3) [SID405527451], technical replicate 2
- viability, normalised (%): 96.7
- Outcome: inactive

AKT3 (AKT serine/threonine kinase 3) [SID405527451], technical replicate 3
- viability, normalised (%): 103
- Outcome: inactive

FXR1 (FMR1 autosomal homolog 1) [SID405526803], technical replicate 1
- viability, normalised (%): 63
- Outcome: active

FXR1 (FMR1 autosomal homolog 1) [SID405526803], technical replicate 2
- viability, normalised (%): 84
- Outcome: inactive

FXR1 (FMR1 autosomal homolog 1) [SID405526803], technical replicate 3
- viability, normalised (%): 78
- Outcome: active

RRP8 (ribosomal RNA processing 8) [SID405527261], technical replicate 1
- viability, normalised (%): 44.3
- Outcome: active

RRP8 (ribosomal RNA processing 8) [SID405527261], technical replicate 2
- viability, normalised (%): 35
- Outcome: active

RRP8 (ribosomal RNA processing 8) [SID405527261], technical replicate 3
- viability, normalised (%): 42.3
- Outcome: active

USP3 (ubiquitin specific peptidase 3) [SID405526613], technical replicate 1
- viability, normalised (%): 32.3
- Outcome: active

USP3 (ubiquitin specific peptidase 3) [SID405526613], technical replicate 2
- viability, normalised (%): 33.7
- Outcome: active

USP3 (ubiquitin specific peptidase 3) [SID405526613], technical replicate 3
- viability, normalised (%): 33.7
- Outcome: active

KMT2C (lysine methyltransferase 2C) [SID405528009], technical replicate 1
- viability, normalised (%): 75.5
- Outcome: active

KMT2C (lysine methyltransferase 2C) [SID405528009], technical replicate 2
- viability, normalised (%): 51.4
- Outcome: active

KMT2C (lysine methyltransferase 2C) [SID405528009], technical replicate 3
- viability, normalised (%): 72.5
- Outcome: active

PHF1 (PHD finger protein 1) [SID405527138], technical replicate 1
- viability, normalised (%): 44.8
- Outcome: active

PHF1 (PHD finger protein 1) [SID405527138], technical replicate 2
- viability, normalised (%): 41.6
- Outcome: active

PHF1 (PHD finger protein 1) [SID405527138], technical replicate 3
- viability, normalised (%): 42.9
- Outcome: active

CHAF1A (chromatin assembly factor 1 subunit A) [SID405528097], technical replicate 1
- viability, normalised (%): 76.5
- Outcome: active

CHAF1A (chromatin assembly factor 1 subunit A) [SID405528097], technical replicate 1
- viability, normalised (%): 61.3
- Outcome: active

CHAF1A (chromatin assembly factor 1 subunit A) [SID405528097], technical replicate 2
- viability, normalised (%): 60.1
- Outcome: active

CHAF1A (chromatin assembly factor 1 subunit A) [SID405528097], technical replicate 2
- viability, normalised (%): 79.2
- Outcome: active

CHAF1A (chromatin assembly factor 1 subunit A) [SID405528097], technical replicate 3
- viability, normalised (%): 54.1
- Outcome: active

CHAF1A (chromatin assembly factor 1 subunit A) [SID405528097], technical replicate 3
- viability, normalised (%): 56.7
- Outcome: active

PXK (PX domain containing serine/threonine kinase like) [SID405527703], technical replicate 1
- viability, normalised (%): 85.6
- Outcome: inactive

PXK (PX domain containing serine/threonine kinase like) [SID405527703], technical replicate 2
- viability, normalised (%): 112
- Outcome: inactive

PXK (PX domain containing serine/threonine kinase like) [SID405527703], technical replicate 3
- viability, normalised (%): 71.9
- Outcome: active

TAF8 (TATA-box binding protein associated factor 8) [SID405526530], technical replicate 1
- viability, normalised (%): 66.3
- Outcome: active

TAF8 (TATA-box binding protein associated factor 8) [SID405526530], technical replicate 2
- viability, normalised (%): 51.2
- Outcome: active

TAF8 (TATA-box binding protein associated factor 8) [SID405526530], technical replicate 3
- viability, normalised (%): 61.9
- Outcome: active

GMEB1 (glucocorticoid modulatory element binding protein 1) [SID405526820], technical replicate 1
- viability, normalised (%): 55
- Outcome: active

GMEB1 (glucocorticoid modulatory element binding protein 1) [SID405526820], technical replicate 2
- viability, normalised (%): 32.9
- Outcome: active

GMEB1 (glucocorticoid modulatory element binding protein 1) [SID405526820], technical replicate 3
- viability, normalised (%): 47.5
- Outcome: active
